Publication doi:10.1101/2021.05.14.443827
These are yes or no findings as the source states them, for the method shown. Binding seen in cells or lysates may run through a third protein. Binding can be weak; no strength is given.

Target: SiiB-3×Flag (Salmonella enterica serovar Typhimurium)
Test: co-IP

For CheM-HA (from UniProt P02941 1-553), which binding is on record?
The binding was “binds”.
